These are yes or no findings as the source states them, for the method shown. Binding seen in cells or lysates may run through a third protein. A yes stands for co-enrichment or nearness to the bait. Other partners may have been found. Where a sequence is shown, tags or fusion partners need not be part of it.

Among the data in article PMC10224958, “Cryo-EM structure of the Saccharomyces cerevisiae Rpd3L histone deacetylase complex” (Nature Communications, 2023) are binding values, retold here.

The target in the experiment is T1, Rxt2 with a TAP tag at the C-terminus (S. cerevisiae) (UniProt P38255).
T1 sequence: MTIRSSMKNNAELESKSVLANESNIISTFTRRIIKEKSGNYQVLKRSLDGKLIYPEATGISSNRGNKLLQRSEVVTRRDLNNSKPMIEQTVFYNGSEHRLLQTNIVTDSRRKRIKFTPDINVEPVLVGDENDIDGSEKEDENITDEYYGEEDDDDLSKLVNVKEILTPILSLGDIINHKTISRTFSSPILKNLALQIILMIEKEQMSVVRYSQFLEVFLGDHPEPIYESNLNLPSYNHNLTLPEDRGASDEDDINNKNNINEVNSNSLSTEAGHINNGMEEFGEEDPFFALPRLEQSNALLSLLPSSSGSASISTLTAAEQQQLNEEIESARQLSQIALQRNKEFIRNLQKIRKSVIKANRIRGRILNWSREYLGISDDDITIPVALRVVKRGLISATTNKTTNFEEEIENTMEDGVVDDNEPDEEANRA
Put plainly: affinity purification with mass spectrometry; tandem affinity purification from S. cerevisiae lysate by the TAP tag on Rxt2 (IgG resin, TEV protease, calmodulin resin; washes with 500 to 750 mM KCl); the purified complex analysed by mass spectrometry.

B1: Ume1 (protein, UniProt Q03010 1-460)
chain: MSTLDIAEDNKIKNEEFKIWKKSIPSLYQHISSLKPIFGSGVDESPSTLRSIVFTNDSSCNKSKGVLSVPLLYSQGSEIFEVDCIVPLGLHYKKPESISEPLVQPDYTMESQKVEQTVLIPKWEFKGETIAKMIYVDNSEINVKVIALSTNGSLAWFREGVKSPVYTMMEPSTSLSSASSGNQNKPCVDFAISNDSKTLTVTKEKHLDNENATIKLIDNSGKIGEVLRTIPVPGIKNIQEIKFLNNQIFATCSDDGIIRFWGNEIGKKPLWILNDSLDGKTTCFAASPFVDTLFMTGTSGGALKVWDIRAVIALGDADAELNINQGHNKVNELFKVHHFYSEQVSKIEFSSISPMEVVTIGGLGNVYHWNFEPVFAIYNEIHEDFQGIISDELEAESMAFYHTEGCRREIGENNKVNTVAYHKYIEDLVATVDSDGLLTVYKPFTGKVLDGSREVGAAKS
For the molecule B1, the binding entry is “binds”.

B2: Ume6 (protein, UniProt P39001 1-836)
chain: MLDKARSQSKHMDESNAAASLLSMETTANNHHYLHNKTSRATLMNSSQDGKKHAEDEVSDGANSRHPTISSASIESLKTTYDENPLLSIMKSTCAPNNTPVHTPSGSPSLKVQSGGDIKDDPKENDTTTTTNTTLQDRRDSDNAVHAAASPLAPSNTPSDPKSLCNGHVAQATDPQISGAIQPQYTATNEDVFPYSSTSTNSNTATTTIVAGAKKKIHLPPPQAPAVSSPGTTAAGSGAGTGSGIRSRTGSDLPLIITSANKNNGKTTNSPMSILSRNNSTNNNDNNSIQSSDSRESSNNNEIGGYLRGGTKRGGSPSNDSQVQHNVHDDQCAVGVAPRNFYFNKDREITDPNVKLDENESKINISFWLNSKYRDEAYSLNESSSNNASSNTDTPTNSRHANTSSSITSRNNFQHFRFNQIPSQPPTSASSFTSTNNNNPQRNNINRGEDPFATSSRPSTGFFYGDLPNRNNRNSPFHTNEQYIPPPPPKYINSKLDGLRSRLLLGPNSASSSTKLDDDLGTAAAVLSNMRSSPYRTHDKPISNVNDMNNTNALGVPASRPHSSSFPSKGVLRPILLRIHNSEQQPIFESNNSTAVFDEDQDQNQDLSPYHLNLNSKKVLDPTFESRTRQVTWNKNGKRIDRRLSAPEQQQQLEVPPLKKSRRSVGNARVASQTNSDYNSLGESSTSSAPSSPSLKASSGLAYTADYPNATSPDFAKSKGKNVKPKAKSKAKQSSKKRPNNTTSKSKANNSQESNNATSSTSQGTRSRTGCWICRLRKKKCTEERPHCFNCERLKLDCHYDAFKPDFVSDPKKKQMKLEEIKKKTKEAKRRAMKKK
As to B2, the binding result was “binds”.

B3: Sap30 (natural protein, S. cerevisiae, UniProt P38429 1-201, looked up)
chain: MARPVNTNAETESRGRPTQGGGYASNNNGSCNNNNGSNNNNNNNNNNNNNSNNSNNNNGPTSSGRTNGKQRLTAAQQQYIKNLIETHITDNHPDLRPKSHPMDFEEYTDAFLRRYKDHFQLDVPDNLTLQGYLLGSKLGAKTYSYKRNTQGQHDKRIHKRDLANVVRRHFDEHSIKETDCIPQFIYKVKNQKKKFKMEFRG
notes: Sap30, subunit of the S. cerevisiae Rpd3L complex; endogenous subunit
Turning to B3, the binding entry is given as “binds”.

B4: Dep1 (natural protein, S. cerevisiae, UniProt P31385 1-405, looked up)
chain: MSQQTPQESEQTTAKEQDLDQESVLSNIDFNTDLNHNLNLSEYCISSDAGTEKMDSDEEKSLANLPELKYAPKLSSLVKQETLTESLKRPHEDEKEAIDEAKKMKVPGENEDESKEEEKSQELEEAIDSKEKSTDARDEQGDEGDNEEENNEEDNENENEHTAPPALVMPSPIEMEEQRMTALKEITDIEYKFAQLRQKLYDNQLVRLQTELQMCLEGSHPELQVYYSKIAAIRDYKLHRAYQRQKYELSCINTETIATRTFIHQDFHKKVTDLRARLLNRTTQTWYDINKERRDMDIVIPDVNYHVPIKLDNKTLSCITGYASAAQLCYPGEPVAEDLACESIEYRYRANPVDKLEVIVDRMRLNNEISDLEGLRKYFHSFPGAPELNPLRDSEINDDFHQWAQ
notes: Dep1, subunit of the S. cerevisiae Rpd3L complex; endogenous subunit
With B4, the binding result is “binds”.

B5: Ash1 (protein, UniProt P34233 1-588)
chain: MSSLYIKTPLHALSAGPDSHANSSYYDNLLLPSFSNLSSNISRNNITTDNNINSASPRKYSFHSLNVSPILSPISLANEILGKKSNTAPASPHHMDYNPISSLTPGNSPEFNKASLSQISFTNPLNYGSGLGFSSNSQPRLPLLDRLSSVSLSKRPERPQQSLPSLRHLQLLPSPLLQENAARFPDTSKRTSNWKTDLTHWCKDTNYQDYVKIREEVAHFKPLSIPNLTNNQNNDSFNYGKELESTRSSKFHSPSKESFDRTKLIPSILEAKDQFKDLSNNAWSITPPVTPPMSPPTNRTMERTTLRGVEASFFEGKSSNNDSIFNPIISEKLVQEVKHQRQLRGNSFPMPNASHKKTNSFKALQIKKLLANRDILSNNSKSNVRKPSKNKISKQASNVFGNTARQLVMKLDNASYSSVSASSSPSPSTPTKSGKMRSRSSSPVRPKAYTPSPRSPNYHRFALDSPPQSPRRSSNSSITKKGSRRSSGSSPTRHTTRVCVSCHSSDSPCWRPSWSPRKQDQLCNSCGLRYKKTHTRCLNDLCRKIPTKGEINIMKSNGIDKEFVPERNCEIEGYRCLFCNYITETVEN
Take B5: the binding result is listed as “binds”.

B6: Cti6 (protein, UniProt Q08923 1-506)
chain: MESTAIVPKGPVVGSEDMEKAEVIASGSTDIISTTSTATTTAAIGSVQEESVKQEDVPMEGGEGEVEEEEGETRCICGELDTPDDSGFFIQCEQCSSWQHGYCVSITQDNAPDKYWCEQCRPELHQLFTTDTGEARSIYKPVQEKRRQSRRKARSAAASKSHAANEAEKSPRNTSNTDDNVDDIGDEEDEVEDEASAVALAKDGNTRSSRRRRRNSMDDASTDQYSLDPGDSDKKLLDRKRATFMAREEKQYQRMLEKALKESRRTSHQEDPESYENDADIYQGDTDNHNGTTRLQTDVMLTEGKPDSVTNDDMKESLRPSKEQSMEKTNDVEKEASQEKESSTGSAQDTEKTDEPILPLTSISSSEDDSRKASSRGSKRVSKPARKGNRTRRSNTSSDTNQNRRSADIGTDKPVKPRLPPQRTSLNEMRRRVSAILEFISRTQWELSEDQSDREEFVRFVENQHFVEKVDTIYNGYNESLSMMDDLTRELLLWEKKYSNNTNAIQ
As for B6, the binding result is “binds”.

B7: Rxt3 (natural protein, S. cerevisiae, UniProt Q07458 1-294, looked up)
chain: MSVSEQDPNRAYRETQSQIYKLQETLLNSARTKNKQEEGQESNTHSFPEQYMHYQNGRNSAYDLPNVSSQSVLAFTEKHYPNKLKNLGTLYYNRFKEGSFDEDSTSYSDRHSFPYNLYDNTLPPPFLPAIGIQNINNIATLKITYEDIQASFNNIESPRKRNNEIWGCDIYSDDSDPILVLRHCGFKIGAPSGGSFHKLRRTPVNVTNQDNVTGNLPLLEGTPFDLEVELLFLPTLQKYPSVKRFDITSREWGSEATVIHDGLSYGIYSIVIKQRLDRDKPHEPNGYIKNLKWT
notes: Rxt3, subunit of the S. cerevisiae Rpd3L complex; endogenous subunit
As for B7, the binding result is “binds”.

B8: Sds3 (natural protein, S. cerevisiae, UniProt P40505 1-327, looked up)
chain: MAIQKVSNKDLSRKDKRRFNIESKVNKIYQNFYSERDNQYKDRLTALQTDLTSLHQGDNGQYARQVRDLEEERDLELVRLRLFEEYRVSRSGIEFQEDIEKAKAEHEKLIKLCKERLYSSIEQKIKKLQEERLLMDVANVHSYAMNYSRPQYQKNTRSHTVSGWDSSSNEYGRDTANESATDTGAGNDRRTLRRRNASKDTRGNNNNQDESDFQTGNGSGSNGHGSRQGSQFPHFNNLTYKSGMNSDSDFLQGINEGTDLYAFLFGEKNPKDNANGNEKKKNRGAQRYSTKTAPPLQSLKPDEVTEDISLIRELTGQPPAPFRLRSD
notes: Sds3, subunit of the S. cerevisiae Rpd3L complex; endogenous subunit
With B8, the binding result was “binds”.
